We go through 63 molecules from PubChem BioAssay AID2685 (National Center for Advancing Translational Sciences (NCATS), 2010).

The list shows a part of the results. The main result of the screen is listed elsewhere. These columns were measured beside it and carry no call. The list favours compounds with an active or inconclusive main result. The note in brackets gives the kind of curve behind each potency; many fits are weak.

The term AC50 denotes the concentration at which the activity in the assay is half-maximal. A high value points to activity only at high concentration.

This test can be described thus: qHTS Assay for Lipid Storage Modulators in Drosophila S3 Cells.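 On cell number change: cells counted by Cell Tracker Red CMTPX staining in the red channel.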 Particulars: BODIPY lipid droplet fluorescence, 18-24 h; for cell number change: measured here: cell count max response, cells fed with added oleic acid. The essentials: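 Laser-scanning cytometry quantifies lipid droplet accumulation (500–530 nm total intensity; droplet/cell object ratio) in oleic acid-fed (400 uM added) Drosophila S3 cells treated with a concentration series. 20 uM Triacsin C defined 100% inhibition.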

[1] abbreviates: measured here: cell number channel AC50, cells fed with added oleic acid.
Setting [2] is: measured here: lipid fluorescence (Fed channel) AC50, cells fed with added oleic acid.

As for `Cc1ccc(C)c2c3c([nH]c12)-c1nonc1CC3`, the cell number change was -34.9%. The AC50 under setting [1] was 29.1 µM [falling, single point]. Also, the AC50 under setting [2] was 20.6 µM [falling, single point]. As for `CN(C)C1=NCCN1CCCCc1ccccc1`, the cell number change came out at 14.8%. With `CCN(CC)S(=O)(=O)c1cccc(NC(=O)COC(=O)c2cc(C)oc2C)c1`, the cell number change was 77.5%. Further, under setting [1], the concentration at half-maximal activity (AC50) was 16.4 µM [rising, partial curve]. Under setting [2], the half-maximal activity concentration (AC50) is 16.4 µM [rising, partial curve]. On to `N#CC1=C(SCc2ccccc2)NC(=O)CC1c1ccco1` (stereo not given), for which the cell number change was -12.1%. Besides, the concentration at half-maximal activity (AC50) under setting [2] was 0.092 µM [falling, full curve, poor fit].

`Cc1cc(C(=O)COC(=O)c2ccc(F)cc2F)c(C)n1C1CC1`: the cell number change was -0.376%. In addition, the concentration at half-maximal activity (AC50) under setting [2] is 29.1 µM [falling, single point].

In the case of `CCCOc1ccc(Cn2cnc3ccccc32)cc1`, the cell number change was -31.7%. Also, under setting [1], the concentration at half-maximal activity (AC50) is 13 µM [falling, single point]. Under setting [2], the AC50 is 18.4 µM [falling, single point]. Consider `CCC(C)n1c(-c2ccco2)nc2nc3ccccc3nc21` (stereo not given), for which the cell number change is -15.8%.

As to `CCOc1ccc(CN(C(=O)c2oc3ccccc3c2C)C2CCS(=O)(=O)C2)cc1` (stereo not given), the cell number change was -9.96%.

As for `CCC(CC)c1nnc(NC(=O)CCS(=O)(=O)Cc2ccccc2)s1`, the cell number change was found to be 15.4%. Regarding `COC(=O)N(C)c1nc2ccccc2s1`, the cell number change was -16.7%. Also, the half-maximal activity concentration (AC50) under setting [2] is 2.91 µM [rising, single point]. As to `CCn1c(CNc2ccc(F)cc2)nnc1SCCN1CCCCC1`, the cell number change stood at 0.14%. Under setting [2], the half-maximal activity concentration (AC50) is 0.00651 µM [falling, full curve, poor fit]. As for `CSC1=NC(C)(C)C=C(/C=C/c2c(Cl)cccc2Cl)N1`, the cell number change was -4.04%. For the molecule `Cc1ccc2nc(-c3ccc(NC(=O)COC(=O)c4ccc(Br)o4)cc3)sc2c1`, the cell number change came out at 14.3%. Further, the half-maximal activity concentration (AC50) under setting [2] is 11.6 µM [rising, partial curve, poor fit].

Take `Cc1cc(OCCN2CCOCC2)ccc1Cl`: the cell number change amounted to 8.45%. For the same molecule, the half-maximal activity concentration (AC50) under setting [2] was 0.731 µM [falling, full curve, poor fit].

Consider `CCc1sc(C(=O)NCCc2ccc(S(N)(=O)=O)cc2)cc1Br`, for which the cell number change was 20.4%. Further, the AC50 under setting [1] is 6.51 µM [rising, single point]. In addition, under setting [2], the half-maximal activity concentration (AC50) was 0.58 µM [falling, single point]. Regarding `CN=c1scc(C)n1/N=C/c1ccc(O)cc1O`, the cell number change is -22.7%. Besides, under setting [2], the half-maximal activity concentration (AC50) is 29.1 µM [falling, single point].

With `Cc1cc(C(=O)CSc2ncn[nH]2)c(C)n1-c1cccc(S(=O)(=O)N2CCOCC2)c1`, the cell number change is -15.8%. Under setting [2], the AC50 is 13 µM [falling, partial curve]. Take `COC(=O)c1cn(Cc2cccnc2)c(=O)c2ccccc12`: the cell number change worked out at 11.5%. Besides, under setting [2], the concentration at half-maximal activity (AC50) was 0.58 µM [rising, single point]. Consider `O=C(Oc1cccc(/C=N/Nc2nc(N3CCOCC3)nc(N3CCOCC3)n2)c1)c1ccco1`, for which the cell number change was -41.6%. Besides, the half-maximal activity concentration (AC50) under setting [1] was 18.4 µM [falling, partial curve, poor fit]. For the same molecule, the AC50 under setting [2] is 29.1 µM [falling, partial curve]. Turning to `Cc1ccccc1-n1nc2c(c1NC(=O)COc1ccc(Cl)cc1)CS(=O)C2` (stereo not given), the cell number change was -3.04%. On to `CCCc1ccc(C#N)c(SC2CC(=O)N(c3ccc(OC)cc3)C2=O)n1` (stereo not given), for which the cell number change came to 30.9%. The AC50 under setting [2] was 4.11 µM [rising, single point]. As to `C/C(=N\NC(=O)c1c(Br)c(C)nn1C)c1cccc(NC(=O)c2ccccc2C)c1`, the cell number change was determined as 8.12%. Moreover, under setting [2], the concentration at half-maximal activity (AC50) is 16.4 µM [rising, partial curve]. Regarding `CCOc1cc(C(=O)Nc2ccc(S(=O)(=O)N3CCOCC3)cc2)cc(OCC)c1OCC`, the cell number change was 1.63%. Still for that read-out and setting: next, `CCn1nnc2cc(C(=O)O)ccc21`: 32.4%. As to `COc1ccc(CNCCNC(=O)c2ccco2)c(OC)c1OC`, the cell number change is -8.19%. The AC50 under setting [1] is 1.16 µM [falling, full curve, poor fit]. `O=c1[nH]cnc2cc(-c3ccc(Br)cc3)sc12`: the cell number change is -21%. The AC50 under setting [2] was 29.1 µM [rising, single point].

As to `Cc1ccc(CC(SCc2ccccc2)C(=O)O)cc1C` (stereo not given), the cell number change is 23.1%. On to `COc1ccccc1NC(=O)c1cccc(S(=O)(=O)N2CCOCC2)c1`, for which the cell number change was -6.95%. Take `O=S(=O)(Nc1ccc2c(c1)OCO2)c1ccc(F)c(F)c1`: the cell number change was -49.1%. The AC50 under setting [1] is 29.1 µM [falling, single point]. Further, under setting [2], the AC50 was 29.1 µM [falling, single point]. As to `Nc1nonc1C(=O)N1CCCC1`, the cell number change was -27.8%. The AC50 under setting [2] is 29.1 µM [falling, single point]. In the case of `C=CCNC(=O)c1onc(CSc2ccc(F)cc2)c1C(=O)NCC=C`, the cell number change was determined as 6.53%. In addition, the AC50 under setting [2] is 6.51 µM [rising, single point]. Consider `C/C(=N/NC(=O)c1ccc(Br)s1)c1ccncc1`, for which the cell number change is 48.5%. The half-maximal activity concentration (AC50) under setting [1] was 23.1 µM [rising, partial curve, poor fit].

`CCOc1cc(CNCCc2ccc(S(N)(=O)=O)cc2)ccc1OCC(=O)NC1CCCCC1`: the concentration at half-maximal activity (AC50) under setting [2] was 1.3 µM [falling, full curve]. As to `C[C@H](NS(=O)(=O)c1ccc(Cl)cc1)C(=O)OCC(=O)NC(=O)Nc1ccc2c(c1)OCCO2`, the cell number change is 51.2%. In addition, the AC50 under setting [1] was 3.66 µM [rising, partial curve]. The AC50 under setting [2] is 1.64 µM [rising, partial curve]. As for `CCOC(=O)C(Cc1ccccc1)NC(=O)CCCC(=O)c1ccccc1` (stereo not given), the cell number change was -28.8%.

Consider `CCOC(=O)Nc1c(C(=O)OC)[nH]c2cc(OC)ccc12`, for which the cell number change came to 37.8%. The AC50 under setting [1] was 3.26 µM [rising, full curve]. Besides, the AC50 under setting [2] was 7.31 µM [rising, partial curve]. Consider `CC1(C)Cc2c(sc3c2c(=O)n(Cc2ccccc2)c2nncn32)CO1`, for which the cell number change was -0.673%. For the molecule `CC(=O)Nc1ccc(SCCN2CC[C@@H](O)CCC2=O)cc1`, the cell number change is -44.4%. Besides, the AC50 under setting [1] was 18.4 µM [falling, single point]. Turning to `CCc1ccccc1NC(=S)NNC(=O)c1ccccc1Cl`, the cell number change was 21.7%. Take `Cc1cc2nc(C(F)(F)F)[nH]c(=O)n2n1`: the cell number change was -1.3%. Also, the concentration at half-maximal activity (AC50) under setting [2] is 0.116 µM [falling, full curve, poor fit].

Consider `O=C(O)C1CCN(c2ccc(S(=O)(=O)N3CCCCC3)cc2[N+](=O)[O-])CC1`, for which the cell number change was -6.4%. Take `O=C(/C=C/c1ccc([N+](=O)[O-])cc1)Nc1cccnc1`: the cell number change came to 55.7%. Further, the AC50 under setting [1] is 29.1 µM [rising, single point]. Consider `COc1cccc(NC(=S)NC2CC(C)(C)NC(C)(C)C2)c1`, for which the cell number change was -8.55%. For the same molecule, the AC50 under setting [2] is 29.1 µM [rising, single point]. On to `S=C(NCCc1ccccc1)Nc1ccccc1N1CCOCC1`, for which the cell number change amounted to 4.31%. In addition, the AC50 under setting [1] was 0.291 µM [falling, single point]. For the same molecule, under setting [2], the AC50 is 6.51 µM [falling, partial curve, poor fit]. Regarding `Cc1ccc(C)c(N2CCN(C(=O)CCS(=O)(=O)c3ccc4c(c3)NC(=O)C(C)S4)CC2)c1` (stereo not given), the cell number change was -43.5%. In addition, the AC50 under setting [1] was 32.6 µM [falling, single point]. Moreover, the AC50 under setting [2] is 18.4 µM [falling, single point]. As for `CCOC(=O)c1ccc(NC(=S)N(CCCN2CCN(C)CC2)Cc2cccs2)cc1`, the AC50 was 1.64 µM [rising, partial curve] under setting [1] and 29.1 µM [rising, single point] under setting [2]. As for `Cc1ccc(C(=O)NCCc2ccccc2)cc1N1CCCC1=O`, the cell number change came out at 5.9%. Moreover, the concentration at half-maximal activity (AC50) under setting [2] was 1.84 µM [rising, partial curve]. On to `CCOC(=O)/C=C/C(=O)OCC(=O)Nc1ccc(C)cc1`, for which the cell number change was found to be 7.45%. For the same molecule, the AC50 under setting [1] was 0.82 µM [falling, single point]. As to `O=C(Nc1ccc(Cl)c(Cl)c1)N1CC=C(c2ccccc2)CC1`, the cell number change was 11.5%. Besides, the half-maximal activity concentration (AC50) under setting [2] is 11.6 µM [falling, partial curve]. In the case of `CCOc1ccc(C(=O)NCC(c2ccco2)N2CCc3ccccc3C2)cc1` (stereo not given), the cell number change turned out to be 27.3%. Further, the half-maximal activity concentration (AC50) under setting [1] is 1.3 µM [rising, full curve, poor fit].

For `CC1CN(C(=O)COC(=O)c2ccc(C#N)cc2)CC(C)O1` (stereo not given), the cell number change was 25.6%. In addition, the AC50 under setting [2] is 29.1 µM [rising, partial curve, poor fit]. Take `Cc1ccccc1CN1CCC(N2CCC(C(=O)NCC3CCCO3)CC2)CC1` (stereo not given): the cell number change was 12.4%. Further, the concentration at half-maximal activity (AC50) under setting [2] is 29.1 µM [rising, single point].

Take `O=C(C1CCC(=O)N1Cc1ccccc1Cl)N1CCN(c2ccc(F)cc2)CC1` (stereo not given): the cell number change was 22.3%. Turning to `Cc1ccc(NS(=O)(=O)c2c(C)[nH]c(C)c2C(=O)N2CCCCC2)c(Cl)c1`, the cell number change was -8.55%. Further, under setting [2], the half-maximal activity concentration (AC50) was 20.6 µM [falling, single point].

Turning to `Cc1cc(C(=O)N2CCCC(C(=O)c3ccc(Cl)cc3C)C2)no1` (stereo not given), the cell number change is -5.78%. As to `O=C1NC(c2cccnc2)C(C(=O)c2cccs2)C(O)(C(F)(F)F)N1` (stereo not given), the cell number change turned out to be 46.7%. The AC50 under setting [1] is 2.06 µM [rising, full curve, poor fit]. In addition, the AC50 under setting [2] was 2.06 µM [rising, partial curve]. `CCN(CC)c1ccc(/C=N/N2CCN(Cc3ccccc3)CC2)c(O)c1`: the cell number change is -25.6%. The AC50 under setting [2] is 29.1 µM [falling, single point]. Take `COc1ccc(-c2cc(CNC(=O)CN3CCN(C)CC3)on2)cc1`: the AC50 under setting [2] is 20.6 µM [falling, partial curve].

Turning to `COc1ccc(OC(C)C(=O)Nc2ccc(F)cc2F)cc1` (stereo not given), the cell number change worked out at 30%. Under setting [2], the AC50 is 32.6 µM [rising, single point]. On to `O=C(Nc1ccc(Cl)c([N+](=O)[O-])c1)c1ccc(NCCCN2CCOCC2)c([N+](=O)[O-])c1`, for which the cell number change is -59.9%. Moreover, the half-maximal activity concentration (AC50) under setting [1] is 7.31 µM [falling, partial curve]. Further, the half-maximal activity concentration (AC50) under setting [2] is 11.6 µM [falling, partial curve]. For `COc1ccc(NC(=O)c2cc3c(CO)cnc(C)c3oc2=Nc2cccc(F)c2)c(OC)c1`, the cell number change is -26.1%. Also, the AC50 under setting [2] was 0.651 µM [falling, full curve]. Consider `C/C(=N\OCC(=O)N/N=C/c1ccccc1O)c1cccs1`, for which the cell number change was found to be 46.3%. For the same molecule, the half-maximal activity concentration (AC50) under setting [1] was 16.4 µM [rising, partial curve]. For the same molecule, the AC50 under setting [2] was 20.6 µM [rising, partial curve]. Consider `Cc1onc(-c2ccccc2)c1C(=O)Nc1ccccc1N1CCOCC1`, for which the AC50 under setting [2] is 0.58 µM [rising, single point].
